Experimental data reported in paper doi:10.1101/2020.02.01.930206.
Results are given in words; binding and its absence hold for the method and conditions named. For some assays here: In cells and extracts the contact can be indirect. Some binding calls cover weakened binding; strength is not graded here. For some assays here: Sequences can lack the tags named with a protein. One block for each binder: values may come before it.

Chains of the proteins cited; added tags and fusions are not shown. Lines headed by an entry give the natural chain unless they say otherwise; changes in a name come on top.
UniProt O76071: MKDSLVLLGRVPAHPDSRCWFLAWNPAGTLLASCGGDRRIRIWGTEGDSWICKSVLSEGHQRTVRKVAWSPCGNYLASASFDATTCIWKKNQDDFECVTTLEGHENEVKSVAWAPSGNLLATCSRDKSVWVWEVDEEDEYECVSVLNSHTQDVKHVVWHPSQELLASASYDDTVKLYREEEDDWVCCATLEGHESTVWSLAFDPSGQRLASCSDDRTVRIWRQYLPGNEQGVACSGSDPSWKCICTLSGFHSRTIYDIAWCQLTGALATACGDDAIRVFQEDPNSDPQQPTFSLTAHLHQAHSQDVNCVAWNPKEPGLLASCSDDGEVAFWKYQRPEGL

What was measured:
[1] = target: human primase (PriL-PriS heterodimer) (human) (UniProt P49643+P49642); assay: ITC
[2] = target: CIA targeting complex co-expressed in HEK293 cells (Flag-MMS19, myc-CIAO2B, wild-type myc-CIAO1) (human) (UniProt Q96T76+Q9Y3D0+O76071); assay: co-IP
[3] = target: CIA targeting complex co-expressed in HEK293 cells with myc-CIAO1 R125E (human) (UniProt Q96T76+Q9Y3D0+O76071); assay: co-IP

binding [1]: no binding
B1: human MMS19-CIAO2B sub-complex (complex, UniProt Q96T76;Q9Y3D0)
chain 1: MAAAAAVEAAAPMGALWGLVHDFVVGQQEGPADQVAADVKSGNYTVLQVVEALGSSLENPEPRTRARAIQLLSQVLLHCHTLLLEKEVVHLILFYENRLKDHHLVIPSVLQGLKALSLCVALPPGLAVSVLKAIFQEVHVQSLPQVDRHTVYNIITNFMRTREEELKSLGADFTFGFIQVMDGEKDPRNLLVAFRIVHDLISRDYSLGPFVEELFEVTSCYFPIDFTPPPNDPHGIQREDLILSLRAVLASTPRFAEFLLPLLIEKVDSEVLSAKLDSLQTLNACCAVYGQKELKDFLPSLWASIRREVFQTASERVEAEGLAALHSLTACLSRSVLRADAEDLLDSFLSNILQDCRHHLCEPDMKLVWPSAKLLQAAAGASARACDSVTSNVLPLLLEQFHKHSQSSQRRTILEMLLGFLKLQQKWSYEDKDQRPLNGFKDQLCSLVFMALTDPSTQLQLVGIRTLTVLGAQPDLLSYEDLELAVGHLYRLSFLKEDSQSCRVAALEASGTLAALYPVAFSSHLVPKLAEELRVGESNLTNGDEPTQCSRHLCCLQALSAVSTHPSIVKETLPLLLQHLWQVNRGNMVAQSSDVIAVCQSLRQMAEKCQQDPESCWYFHQTAIPCLLALAVQASMPEKEPSVLRKVLLEDEVLAAMVSVIGTATTHLSPELAAQSVTHIVPLFLDGNVSFLPENSFPSRFQPFQDGSSGQRRLIALLMAFVCSLPRNVEIPQLNQLMRELLELSCCHSCPFSSTAAAKCFAGLLNKHPAGQQLDEFLQLAVDKVEAGLGSGPCRSQAFTLLLWVTKALVLRYHPLSSCLTARLMGLLSDPELGPAAADGFSLLMSDCTDVLTRAGHAEVRIMFRQRFFTDNVPALVQGFHAAPQDVKPNYLKGLSHVLNRLPKPVLLPELPTLLSLLLEALSCPDCVVQLSTLSCLQPLLLEAPQVMSLHVDTLVTKFLNLSSSPSMAVRIAALQCMHALTRLPTPVLLPYKPQVIRALAKPLDDKKRLVRKEAVSARGEWFLLGSPGS
chain 2: MVGGGGVGGGLLENANPLIYQRSGERPVTAGEEDEQVPDSIDAREIFDLIRSINDPEHPLTLEELNVVEQVRVQVSDPESTVAVAFTPTIPHCSMATLIGLSIKVKLLRSLPQRFKMDVHITPGTHASEHAVNKQLADKERVAAALENTHLLEVVNQCLSARS

binding [2]: binds
binding [3]: no binding
B2: myc-PriL/S (myc-tagged primase co-expressed in HEK293 cells) (complex, UniProt P49643;P49642)
chain 1: MEFSGRKWRKLRLAGDQRNASYPHCLQFYLQPPSENISLIEFENLAIDRVKLLKSVENLGVSYVKGTEQYQSKLESELRKLKFSYRENLEDEYEPRRRDHISHFILRLAYCQSEELRRWFIQQEMDLLRFRFSILPKDKIQDFLKDSQLQFEAISDEEKTLREQEIVASSPSLSGLKLGFESIYKIPFADALDLFRGRKVYLEDGFAYVPLKDIVAIILNEFRAKLSKALALTARSLPAVQSDERLQPLLNHLSHSYTGQDYSTQGNVGKISLDQIDLLSTKSFPPCMRQLHKALRENHHLRHGGRMQYGLFLKGIGLTLEQALQFWKQEFIKGKMDPDKFDKGYSYNIRHSFGKEGKRTDYTPFSCLKIILSNPPSQGDYHGCPFRHSDPELLKQKLQSYKISPGGISQILDLVKGTHYQVACQKYFEMIHNVDDCGFSLNHPNQFFCESQRILNGGKDIKKEPIQPETPQPKPSVQKTKDASSALASLNSSLEMDMEGLEDYFSEDS
chain 2: METFDPTELPELLKLYYRRLFPYSQYYRWLNYGGVIKNYFQHREFSFTLKDDIYIRYQSFNNQSDLEKEMQKMNPYKIDIGAVYSHRPNQHNTVKLGAFQAQEKELVFDIDMTDYDDVRRCCSSADICPKCWTLMTMAIRIIDRALKEDFGFKHRLWVYSGRRGVHCWVCDESVRKLSSAVRSGIVEYLSLVKGGQDVKKKVHLSEKIHPFIRKSINIIKKYFEEYALVNQDILENKESWDKILALVPETIHDELQQSFQKSHNSLQRWEHLKKVASRYQNNIKNDKYGPWLEWEIMLQYCFPRLDINVSKGINHLLKSPFSVHPKTGRISVPIDLQKVDQFDPFTVPTISFICRELDAISTNEEEKEENEAESDVKHRTRDYKKTSLAPYVKVFEHFLENLDKSRKGELLKKSDLQKDF

binding [2]: binds
binding [3]: no binding
B3: myc-DNA2 (enzyme, UniProt Q6ZQJ5 1-1062)
chain: MEPLDELDLLLLEEDGGAEAVPRVELLRKKADALFPETVLSRGVDNRYLVLAVETSQNERGAEEKRLHVTASQDREHEVLCILRNGWSSVPVEPGDIVHLEGDCTSEPWIIDDDFGYFILYPDMMISGTSVASSIRCLRRAVLSETFRGSDPATRQMLIGTILHEVFQKAISESFAPERLQELALQTLREVRHLKEMYRLNLSQDEILCEVEEYLPSFSKWAEDFMRKGPSSEFPQMQLSLPSDGSNRSSPCNIEVVKSLDIEESIWSPRFGLKGKIDVTVGVKIHRDCKMKYKVMPLELKTGKESNSIEHRSQVVLYTLLSQERREDPEAGWLLYLKTGQMYPVPANHLDKRELLKLRNWLAASLLHRVSRAAPGEEARLSALPQIIEEEKTCKYCSQIGNCALYSRAVEEQGDDASIPEAMLSKIQEETRHLQLAHLKYFSLWCLMLTLESQSKDNRKTHQSIWLTPASELEESGNCVGNLVRTEPVSRVCDGQYLHNFQRKNGPMPATNLMAGDRIILSGEERKLFALSKGYVKKMNKAAVTCLLDRNLSTLPATTVFRLDREERHGDISTPLGNLSKLMESTDPSKRLRELIIDFREPQFIAYLSSVLPHDAKDTVANILKGLNKPQRQAMKRVLLSKDYTLIVGMPGTGKTTTICALVRILSACGFSVLLTSYTHSAVDNILLKLAKFKVGFLRLGQSHKVHPDIQKFTEEEICRSRSIASLAHLEELYNSHPIVATTCMGINHPIFSRKTFDFCIVDEASQISQPVCLGPLFFSRRFVLVGDHQQLPPLVVNREARALGMSESLFKRLERNESAVVQLTVQYRMNRKIMSLSNKLTYAGKLECGSDRVANAVLALPNLKDARLSLQLYADYSDSPWLAGVLEPDNPVCFLNTDKVPAPEQVENGGVSNVTEARLIVFLTSTFIKAGCSPSDIGVIAPYRQQLRIISDLLARSSVGMVEVNTVDKYQGRDKSLILVSFVRSNEDGTLGELLKDWRRLNVALTRAKHKLILLGSVSSLKRFPPLGTLFDHLNAEQLILDLPSREHESLSHILGDCQRD
